Assay results from publication PMC9784969, “SARS-CoV-2 Inhibitors Identified by Phenotypic Analysis of a Collection of Viral RNA-Binding Molecules” (Pharmaceuticals, 2022).
Where a name gives a salt, the structure may show the parent alone. Read-outs that look alike come from different tables or passages of the source.

Experiments:
[1] = molecular target: subdomain IIB of the rev recognition element (RRE) of the HIV-1 genomic RNA; details: read-out: HIV-1 RNA-binding Kd; cited from earlier work
in vitro [2] = details: human, uninfected 293T-ACE2 cells
3_S2m-23fl RNA hairpin = test: fluorescence intensity binding assay; set-up: species or system SARS-CoV-2
Description: The 3_S2m-23fl RNA oligonucleotide used in fluorescence intensity experiments was purchased HPLC-purified from Integrated DNA Technologies (Coralville, IA, USA). This oligonucleotide contained a fluorescein probe linked to the apical loop nt U23 and was identical in sequence to the unlabeled 3_S2m molecule used in NMR experiments (Figure 5). The mixture of tRNAs from E. coli MRE 600 (identified as tRNA^mix) used to evaluate specificity was obtained from Roche (Basel, Switzerland).
3_S2m-23fl (at 100 nM concentration) was snap-cooled in a buffer containing sodium phosphate pH 6.6, 0 or 150 mM NaCl, and 0.1 mM EDTA and incubated with increasing amounts of compound. The specificity of the RNA–ligand interactions was evaluated by repeating the assays in the presence of a 100-fold molar excess (10 μM) of tRNA^mix. […] All fluorescence binding assays were carried out three times for each molecule and condition.

HIV-1 = details: cited from earlier work
in vitro [3] = details: African green monkey, uninfected Vero E6 cells
SARS-CoV-2 USA-WA1/2020 [4] = test: microbe, parasite or virus in culture; format: cell-based; details: Severe acute respiratory syndrome coronavirus 2, Vero C1008, 48 h, Vero E6 cells, MOI 0.025, two days
SARS-CoV-2 USA-WA1/2020 [5] = test: microbe, parasite or virus in culture; format: cell-based; details: Severe acute respiratory syndrome coronavirus 2, 48 h; 293T-ACE2 cells, MOI 0.25, two days

Compound | Kd [1] [µM] | CC50 at 2 days (in vitro [2]) [µM] | Kd (3_S2m-23fl RNA hairpin; 0 mM NaCl, pH 6.6, 25 °C, read-out: Kd) [µM] | Kd (3_S2m-23fl RNA hairpin; 150 mM NaCl, 100-fold molar excess of tRNA, read-out: Kd-tRNA) [µM] | Kd (3_S2m-23fl RNA hairpin; 150 mM NaCl, pH 6.6, 25 °C, no tRNA, read-out: Kd) [µM] | Previous target virus activity (HIV-1; HIV-1, ref 1 (Table S1 list: Prado et al. 2016)) | EC50 (HIV-1; read-out: anti-HIV EC50) [µM] | CC50 at 2 days (in vitro [3]) [µM] | EC50 (SARS-CoV-2 USA-WA1/2020 [4]) [µM] | EC50 (SARS-CoV-2 USA-WA1/2020 [5]) [µM]
CCN(CC)CCOc1ccc(C(=C(Cl)c2ccccc2)c2ccccc2)cc1 [Clomiphene citrate, reference compound] | 12.4 | > 20 | 36 | 16.8 | 33.2 | yes | 4.4 | 2.62 | 0.449 | 0.371
CN1CCC(=C2c3ccccc3C=Cc3ccccc32)CC1 [Cyprohetadine, reference compound] |  |  |  |  |  |  |  |  | > 20 | 
